Measured values as given in publication PMC11445491.
Results are given in words; binding and its absence hold for the method and conditions named. In cells and extracts the contact can be indirect. Some entries that bind do so weakly or less than the wild type.

Sequences of proteins named here, by UniProt entry; tags and fusion partners are left off. A change or cut given only in a name is not applied to a line headed by its entry. A line that says so, or that is headed by a name, gives the form on record, which may keep a tag or linker. Residues count along the entry.
3xFLAG/TNFR1 WT, reconstituted in TNFR1 knockdown cells (P19438, residues 30-455): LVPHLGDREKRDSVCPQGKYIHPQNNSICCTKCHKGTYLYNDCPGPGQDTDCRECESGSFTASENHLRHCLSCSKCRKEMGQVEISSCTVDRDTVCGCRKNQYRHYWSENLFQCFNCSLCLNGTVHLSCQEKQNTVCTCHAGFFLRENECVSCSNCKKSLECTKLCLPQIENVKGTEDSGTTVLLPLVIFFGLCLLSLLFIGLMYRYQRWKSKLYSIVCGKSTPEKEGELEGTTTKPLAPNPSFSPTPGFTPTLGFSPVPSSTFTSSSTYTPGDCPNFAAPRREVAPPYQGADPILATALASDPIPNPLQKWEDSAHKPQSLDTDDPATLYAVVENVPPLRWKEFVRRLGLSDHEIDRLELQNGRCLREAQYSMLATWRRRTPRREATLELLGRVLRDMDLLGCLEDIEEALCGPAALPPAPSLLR
3xFLAG/TNFR1 Y360/401D, reconstituted in TNFR1 knockdown cells (P19438, form named): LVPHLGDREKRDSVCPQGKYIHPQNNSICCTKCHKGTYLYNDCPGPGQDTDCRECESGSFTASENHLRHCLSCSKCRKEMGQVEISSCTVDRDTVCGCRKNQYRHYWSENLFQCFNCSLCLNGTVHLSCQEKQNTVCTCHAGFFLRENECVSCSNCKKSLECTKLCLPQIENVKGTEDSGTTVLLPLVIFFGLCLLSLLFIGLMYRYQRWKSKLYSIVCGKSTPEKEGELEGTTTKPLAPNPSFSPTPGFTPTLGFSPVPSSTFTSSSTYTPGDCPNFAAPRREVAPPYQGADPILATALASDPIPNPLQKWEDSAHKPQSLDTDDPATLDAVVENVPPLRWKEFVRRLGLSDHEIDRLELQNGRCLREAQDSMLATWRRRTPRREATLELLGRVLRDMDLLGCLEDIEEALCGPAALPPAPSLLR
TNFR1 Y360D in pCS5/3xFLAG (P19438, form named): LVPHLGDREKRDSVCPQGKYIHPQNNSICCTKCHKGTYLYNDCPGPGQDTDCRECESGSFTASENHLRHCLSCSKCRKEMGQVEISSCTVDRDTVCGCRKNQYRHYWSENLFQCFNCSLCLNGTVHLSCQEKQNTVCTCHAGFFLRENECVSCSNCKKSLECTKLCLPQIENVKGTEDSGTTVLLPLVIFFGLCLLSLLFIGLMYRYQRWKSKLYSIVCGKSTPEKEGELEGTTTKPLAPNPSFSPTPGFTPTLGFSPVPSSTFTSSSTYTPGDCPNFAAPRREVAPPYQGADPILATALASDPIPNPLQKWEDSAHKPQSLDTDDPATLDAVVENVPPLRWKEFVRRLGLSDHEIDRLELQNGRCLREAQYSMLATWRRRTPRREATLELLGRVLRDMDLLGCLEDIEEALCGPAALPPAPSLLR
TNFR1 Y401D in pCS5/3xFLAG (P19438, form named): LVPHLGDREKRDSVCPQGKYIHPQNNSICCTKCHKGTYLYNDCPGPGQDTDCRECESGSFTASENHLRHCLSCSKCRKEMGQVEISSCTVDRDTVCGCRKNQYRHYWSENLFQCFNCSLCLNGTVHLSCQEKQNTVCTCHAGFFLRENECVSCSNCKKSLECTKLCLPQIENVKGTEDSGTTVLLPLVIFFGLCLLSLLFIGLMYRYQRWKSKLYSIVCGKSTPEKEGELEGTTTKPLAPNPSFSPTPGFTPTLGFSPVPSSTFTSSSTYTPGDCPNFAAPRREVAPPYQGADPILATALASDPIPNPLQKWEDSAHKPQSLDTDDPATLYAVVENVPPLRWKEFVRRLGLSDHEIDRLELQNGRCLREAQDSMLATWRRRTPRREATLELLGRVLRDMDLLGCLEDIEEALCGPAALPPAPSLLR
3xFLAG/TNFR1 Y360/401F, reconstituted in TNFR1 knockdown cells (P19438, form named): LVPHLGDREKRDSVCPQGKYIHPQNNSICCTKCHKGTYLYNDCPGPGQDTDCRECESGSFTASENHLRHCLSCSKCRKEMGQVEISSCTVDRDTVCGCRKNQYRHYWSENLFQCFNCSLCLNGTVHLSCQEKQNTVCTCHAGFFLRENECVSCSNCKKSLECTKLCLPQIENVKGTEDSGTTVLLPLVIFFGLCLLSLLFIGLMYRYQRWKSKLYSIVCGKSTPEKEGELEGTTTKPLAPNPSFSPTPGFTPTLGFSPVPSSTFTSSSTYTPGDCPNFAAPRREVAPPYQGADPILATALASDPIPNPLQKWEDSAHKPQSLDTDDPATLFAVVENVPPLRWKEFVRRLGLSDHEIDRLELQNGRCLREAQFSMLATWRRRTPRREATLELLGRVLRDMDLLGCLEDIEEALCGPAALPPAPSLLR
UniProt Q14790: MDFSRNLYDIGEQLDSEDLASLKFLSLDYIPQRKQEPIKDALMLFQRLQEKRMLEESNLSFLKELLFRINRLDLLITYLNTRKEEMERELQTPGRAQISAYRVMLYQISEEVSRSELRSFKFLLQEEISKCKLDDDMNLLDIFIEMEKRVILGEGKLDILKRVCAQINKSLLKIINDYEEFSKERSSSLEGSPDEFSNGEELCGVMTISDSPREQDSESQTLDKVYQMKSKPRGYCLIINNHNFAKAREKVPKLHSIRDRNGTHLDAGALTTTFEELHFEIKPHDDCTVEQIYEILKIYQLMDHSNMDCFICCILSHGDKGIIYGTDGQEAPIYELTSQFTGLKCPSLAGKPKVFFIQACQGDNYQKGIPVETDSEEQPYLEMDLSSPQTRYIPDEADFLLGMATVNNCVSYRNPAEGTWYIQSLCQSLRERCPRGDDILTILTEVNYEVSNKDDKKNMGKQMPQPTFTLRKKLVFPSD

Tests used:
[1] = target: TNFR1 Y360/401D in pCS5/3xFLAG (UniProt P19438); assay: co-IP; TNFR1 WT, Y360D, Y401D and Y360/401D against RIPK1 or TRADD (Fig. S21B, S21C); cells and antibodies not shown
[2] = target: TNFR1 Y360D in pCS5/3xFLAG (UniProt P19438); assay: as above
[3] = target: TNFR1 Y401D in pCS5/3xFLAG (UniProt P19438); assay: as above
[4] = target: TNFR1 wild type in pCS5/3xFLAG (UniProt P19438); assay: as above
[5] = target: caspase-8, endogenous (human (endogenous in HT-29, HeLa, Panc-1)) (UniProt Q14790); assay: co-IP; HT-29 cells, endogenous complex IIb (T/Bi) and complex IIa (T/C), with or without EGFR inhibitors (Fig. S11D, S13D); precipitating antibody not shown
[6] = target: 3xFLAG/TNFR1 WT, reconstituted in TNFR1 knockdown cells (UniProt P19438); assay: co-IP; 3xFLAG/TNFR1 WT, Y360/401D or Y360/401F reconstituted HeLa cells; T/Bi with or without 250 ng/mL EGF for 15 min; anti-FLAG antibodies and protein G agarose
[7] = target: 3xFLAG/TNFR1 Y360/401F, reconstituted in TNFR1 knockdown cells (UniProt P19438); assay: as above
[8] = target: 3xFLAG/TNFR1 WT, reconstituted in TNFR1 knockdown cells (UniProt P19438); assay: co-IP; 3xFLAG/TNFR1 WT, Y360/401D or Y360/401F reconstituted HT-29 cells; T/Bi/Z with or without 20 μM erlotinib for 30 min; anti-FLAG antibodies and protein G agarose
[9] = target: 3xFLAG/TNFR1 Y360/401D, reconstituted in TNFR1 knockdown cells (UniProt P19438); assay: as above
[10] = target: 3xFLAG/TNFR1 Y360/401F, reconstituted in TNFR1 knockdown cells (UniProt P19438); assay: as above
[11] = target: caspase-8, endogenous (human (endogenous in HT-29, HeLa, Panc-1)) (UniProt Q14790); assay: co-IP; HeLa cells, endogenous; T/Bi (complex IIb) or T/C (complex IIa) with or without 250 ng/mL EGF; anti-caspase-8 antibodies and protein G agarose (Fig. 5C; antibody of Fig. S15C not shown)

Measured: binding

B1: TNFR1 associated death domain protein (TRADD), endogenous (protein, UniProt Q15628 1-312)
chain: MAAGQNGHEEWVGSAYLFVESSLDKVVLSDAYAHPQQKVAVYRALQAALAESGGSPDVLQMLKIHRSDPQLIVQLRFCGRQPCGRFLRAYREGALRAALQRSLAAALAQHSVPLQLELRAGAERLDALLADEERCLSCILAQQPDRLRDEELAELEDALRNLKCGSGARGGDGEVASAPLQPPVPSLSEVKPPPPPPPAQTFLFQGQPVVNRPLSLKDQQTFARSVGLKWRKVGRSLQRGCRALRDPALDSLAYEYEREGLYEQAFQLLRRFVQAEGRRATLQRLVEALEENELTSLAEDLLGLTDPNGGLA
binds: all assays above
